PubChem BioAssay AID1347076 (National Center for Advancing Translational Sciences (NCATS), 2019)
Hit rate of the full screen: of about 400,000 compounds, about 13,000 (3.2%) were called active. Inconclusive means that the source gave no clear call. Such entries were picked first, then a sample of the others. Calls come from the whole dose curve; as a rule, active = well fitted cell-killing curve with a large enough effect; inconclusive = small, poorly fitted or top-dose-only effect, or effect the other way; inactive = flat fitted curve, though single readings scatter. A potency beside an inconclusive call is a rough fit, not a confirmed value.

Test: qHTS assay for MDR1-selective chemotherapeutics: Primary screen using the drug-selected MDR subline cells KB-V1; note: nearly all actives have a fitted effect of over 60% in size
Conditions: KB-V1 MDR cells viability, CellTiter-Glo, 72 h; activity change, negative = cytotoxicity: at 46.1 µM (top of the series)
Summary of the method: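 KB-V1 MDR subline cells in DMEM (phenol-red free, 10% FBS) exposed to compounds in qHTS concentration series for 72 h at 37 degrees C. Viability read by CellTiter-Glo luminescence; concentration-effect curves fitted after normalization and correction.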
% is set by controls: 0 for no effect and ±100 for the full control effect; potency is the fitted concentration of half-maximal effect.

Row | SMILES | activity change, negative = cytotoxicity | Potency
1 | CC1(C(=O)O)CCN1C(=O)c1cccnc1Oc1ccccc1 (centres undefined) | inactive: 3.13% | 
2 | CC(=O)Nc1ccc(S(=O)(=O)N(Cc2cccnc2)Cc2cc3ccccc3[nH]c2=O)cc1 |  | inconclusive: 25.9 µM [cytotoxic, partial curve, poor fit]
3 | Cc1ccc(N2CCN(C3=NC(=O)C(Cc4ccccc4)S3)CC2)cc1 (centres undefined) |  | inconclusive: 18.4 µM [cytotoxic, single point]
4 | CSCCC(NC(=O)c1ccccc1Cl)C(=O)NCC(c1cccs1)N(C)C (centres undefined) |  | inconclusive: 18.4 µM [cytotoxic, single point]
5 | CCCCNC(=O)CN(c1cccc(Br)c1)S(C)(=O)=O |  | inconclusive: 29.1 µM [cytotoxic, single point]
6 | CCN1CCN(S(=O)(=O)c2ccc3c4c(cccc24)C(=O)N3CC)CC1 |  | inconclusive: 20.6 µM [cytotoxic, single point]
7 | COc1ccc(-c2nc3n(n2)C(c2ccc(OC)cc2)C(C(=O)Nc2cccnc2)=C(C)N3)cc1 (centres undefined) | inactive: -21.3% | 
8 | CC(Oc1ccc(Br)cc1)c1nc2c3ccccc3nc(=S)n2[nH]1 (centres undefined) |  | inconclusive: 16.4 µM [cytotoxic, partial curve, poor fit]
9 | CCOC(=O)c1cnc2c(c(C)nn2C)c1Oc1ccc(Cl)cc1 |  | active: 3.26 µM
10 | COCCNC(=O)C1CCN(S(=O)(=O)c2ccc3c(c2)CCCN3C(C)=O)CC1 |  | inconclusive: 29.1 µM [rising, single point]
11 | CC1Sc2ccc(S(=O)(=O)N3CCN(c4ccccc4)CC3)cc2NC1=O (centres undefined) |  | inconclusive: 20.6 µM [cytotoxic, single point]
12 | C/C(=N\O)c1ccc2c(c1)CC(C)O2 (centres undefined) | inconclusive: -40.7% | 
13 | O=C(CCl)Nc1cccn2ncnc12 |  | inconclusive: 29.1 µM [cytotoxic, single point]
14 | Cc1ccc(S(=O)(=O)N(C)C)cc1NC(=O)CSc1nnc(C2CC2)n1C1CC1 | inactive: -13.5% | 
15 | Cc1oc2c(C)c(O)ccc2c(=O)c1-c1ccc2ccccc2n1 |  | inconclusive: 2.31 µM [cytotoxic, full curve, poor fit]
16 | CC1(C(=O)Nc2cnc3ccccc3c2)CCN1Cc1cc2ccccc2o1 (centres undefined) |  | inconclusive: 23.1 µM [cytotoxic, single point]
17 | COc1ccc(C(=O)N2CCCC(c3nc(-c4cc(OC)c(OC)c(OC)c4)no3)C2)cc1 (centres undefined) |  | inconclusive: 29.1 µM [cytotoxic, single point]
18 | CC(I)CCC(C)[n+]1cccc(I)c1 (centres undefined) |  | inconclusive: 29.1 µM [rising, single point]
19 | Cc1ccc(NC(=O)N/C=C/c2ccc(Cl)cc2)cc1 | inconclusive: 31.8% | 

Pulled by compound from the entries so far:
Row | SMILES | activity change, negative = cytotoxicity | Potency
1 | CC1(C(=O)O)CCN1C(=O)c1cccnc1Oc1ccccc1 (centres undefined) | inactive: 3.13% | 
15 | Cc1oc2c(C)c(O)ccc2c(=O)c1-c1ccc2ccccc2n1 |  | inconclusive: 2.31 µM [cytotoxic, full curve, poor fit]
